In patent publication US9511020B2, “Controlled release corticosteroid compositions and methods for the treatment of otic disorders” (priority 2008, dated 2016):
At least one structure is not confirmed: it was looked up by name or label, or the drawing left a doubt.

Columns and labels:
[1] = relative potency; cited from earlier work
[2] = cited from earlier work; for Glucocorticoid potency: relative potency
[3] = Dry-heat sterilization of micronized dexamethasone powder; assay type: physicochemical

SMILES	Mineralocorticoid potency [1]	Glucocorticoid potency [2]	purity after dry-heat sterilization (HPLC) ([3]; dry-heat sterilized)	particle size distribution after dry-heat sterilization ([3]; temperature of up to 138° C., 7-11 hours)	potency relative to endogenous cortisol ([2]; times the potency of endogenous cortisol)
C[C@H]1C[C@H]2[C@@H]3CCC4=CC(=O)C=C[C@]4(C)[C@@]3(F)[C@@H](O)C[C@]2(C)[C@@]1(O)C(=O)CO [betamethasone]	0.0038	45			
C[C@@H]1C[C@H]2[C@@H]3CCC4=CC(=O)C=C[C@]4(C)[C@@]3(F)[C@@H](O)C[C@]2(C)[C@@]1(O)C(=O)CO [micronized dexamethasone, dexamethasone]			99%	did not affect particle size distribution	
C[C@@H]1C[C@H]2[C@@H]3CCC4=CC(=O)C=C[C@]4(C)[C@@]3(F)[C@@H](O)C[C@]2(C)[C@@]1(O)C(=O)CO [dexamethasone]	0.0094	21			25-30 times
